# PubChem BioAssay AID1224828, NIAID – 2016
# Assay: 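Knock-downs that increase or decrease LPS-induced p65 nuclear translocation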 (primary screen)
# System: mouse RAW264.7 G9 macrophage reporter cells (GFP-p65, Tnf promoter-mCherry)
# Reagents: siRNA pool against mouse genes, 100 nM
# Time to read-out: 2 days siRNA transfection, then 40 min LPS before fixation
# Conditions: LPS (Salmonella minnesota R595) at 10 ng/ml
# Read-out: 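Microscopy ratio of nuclear to perinuclear-ring GFP-p65 signal, scaled to the plate median; gene score is the average of two replicate robust z-scores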
# Direction: p65 translocation robust z-score: higher = more nuclear NF-kappaB p65 after LPS than the plate median; nuclear/cytoplasmic p65 ratio: higher = more nuclear NF-kappaB p65
# Active means: 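Active if robust z is above 3.3 (negative regulators) or below -1.56, the Tlr4 control median (positive regulators); activity score 50 or more; control wells not called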
# Calls: active = hit (p65 shift raised or lowered); inactive = no clear change
# This is an unselected part of about 17,000 reagents tested. 762 of them (4.5%) were called active. 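Active calls include both raised and lowered p65 entry, mostly lowered; wells with fewer than 50 cells lack a z-score.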 Raw values are not corrected between plates. Entries without a mark were called inactive.
gene symbol,p65 translocation robust z-score,"nuclear/cytoplasmic p65 ratio, rep 1","nuclear/cytoplasmic p65 ratio, rep 2",low cell count flag
Tex19.2,,1.37,1.08,fewer than 50 cells per well; well left out of scoring
Chil6,1.02,1.61,1.62,enough cells to score
Srprb,,1.56,1.2,fewer than 50 cells per well; well left out of scoring
Or5p58,-0.39,1.02,1.22,enough cells to score
Map2k6,0.51,1.77,1.44,enough cells to score
Iws1,1.23,1.74,1.4,enough cells to score
Cherp,0.35,1.55,1.95,enough cells to score
H3c11,,1.92,1.62,fewer than 50 cells per well; well left out of scoring
Zfp710,-0.15,1.27,1.51,enough cells to score
H6pd,0.62,1.71,1.66,enough cells to score
Ccl17,0,1.53,1.59,enough cells to score
Calcoco1,,1.86,1.65,fewer than 50 cells per well; well left out of scoring
Smad4,0.25,1.51,1.67,enough cells to score
Folr1,1.36,1.53,1.63,enough cells to score
Tmem106a,1.72,1.83,2.14,enough cells to score
Extl3,-0.44,1.44,1.28,enough cells to score
Scube2,0.25,1.5,1.68,enough cells to score
Rtl3,,1.48,1.66,fewer than 50 cells per well; well left out of scoring
Il25,-0.64,1.43,1.37,enough cells to score
Slc28a3,-0.54,1.35,1.2,enough cells to score
Gstp2,-0.09,1.43,1.35,enough cells to score
Rad54l2,-0.75,1.34,1.15,enough cells to score
Lrriq3,1.51,1.35,1.49,enough cells to score
Rbm4,1.86,1.64,1.45,enough cells to score
Hook3,-1.13,1.52,1.34,enough cells to score
Agpat1,-0.48,1.57,1.53,enough cells to score
Taf1a,0.58,1.54,1.66,enough cells to score
Trim50,0.98,1.52,1.22,enough cells to score
Tnrc6b,-0.89,1.37,1.49,enough cells to score
Trpc1,-0.71,1.5,1.33,enough cells to score
Slfn2,,0,1.14,fewer than 50 cells per well; well left out of scoring
Ttc23,,1.15,1.37,fewer than 50 cells per well; well left out of scoring
Or5ae2,,1.51,1.3,fewer than 50 cells per well; well left out of scoring
Idi1,0.72,1.46,1.54,enough cells to score
Ins1,-1.33,1.4,1.21,enough cells to score
Nostrin,-0.9,1.65,1.35,enough cells to score
Thumpd1,0.03,1.35,1.21,enough cells to score
Pnkp,-1.25,1.42,1.22,enough cells to score
Iffo2,0.21,1.62,1.82,enough cells to score
Rxrg,0.05,1.54,1.54,enough cells to score
Rbck1,-0.4,1.55,1.56,enough cells to score
Actc1,0.89,1.85,1.66,enough cells to score
Hmg20a,0.52,1.54,1.41,enough cells to score
Fbxw8,0.54,1.59,1.8,enough cells to score
Rnf10,-0.06,1.41,1.21,enough cells to score
Nphs2,-1.15,1.33,1.22,enough cells to score
Adat2,1.19,1.72,2.12,enough cells to score
Rnf13,0.47,1.53,1.27,enough cells to score
Capzb,0,1.59,1.64,enough cells to score
Tcf7l2,-0.51,1.44,1.45,enough cells to score
Cyp3a11,0.31,1.56,1.91,enough cells to score
Dlg2,0.82,1.87,1.45,enough cells to score
Rad23b,1.09,1.63,1.71,enough cells to score
Usp25,0.55,1.57,1.6,enough cells to score
Fchsd1,0.3,1.63,1.51,enough cells to score
Tsg101,-1.45,1.38,1.24,enough cells to score
Ctbp1,-1.09,1.39,1.19,enough cells to score
Cyp2c39,-0.11,1.55,1.77,enough cells to score
Ksr1,0.77,1.6,1.47,enough cells to score

9 entries from above in another layout.
{"gene symbol": "Tnrc6b", "p65 translocation robust z-score": -0.89, "nuclear/cytoplasmic p65 ratio, rep 1": 1.37, "nuclear/cytoplasmic p65 ratio, rep 2": 1.49, "low cell count flag": "enough cells to score"}
{"gene symbol": "Trpc1", "p65 translocation robust z-score": -0.71, "nuclear/cytoplasmic p65 ratio, rep 1": 1.5, "nuclear/cytoplasmic p65 ratio, rep 2": 1.33, "low cell count flag": "enough cells to score"}
{"gene symbol": "Slfn2", "nuclear/cytoplasmic p65 ratio, rep 1": 0, "nuclear/cytoplasmic p65 ratio, rep 2": 1.14, "low cell count flag": "fewer than 50 cells per well; well left out of scoring"}
{"gene symbol": "Ttc23", "nuclear/cytoplasmic p65 ratio, rep 1": 1.15, "nuclear/cytoplasmic p65 ratio, rep 2": 1.37, "low cell count flag": "fewer than 50 cells per well; well left out of scoring"}
{"gene symbol": "Or5ae2", "nuclear/cytoplasmic p65 ratio, rep 1": 1.51, "nuclear/cytoplasmic p65 ratio, rep 2": 1.3, "low cell count flag": "fewer than 50 cells per well; well left out of scoring"}
{"gene symbol": "Idi1", "p65 translocation robust z-score": 0.72, "nuclear/cytoplasmic p65 ratio, rep 1": 1.46, "nuclear/cytoplasmic p65 ratio, rep 2": 1.54, "low cell count flag": "enough cells to score"}
{"gene symbol": "Ins1", "p65 translocation robust z-score": -1.33, "nuclear/cytoplasmic p65 ratio, rep 1": 1.4, "nuclear/cytoplasmic p65 ratio, rep 2": 1.21, "low cell count flag": "enough cells to score"}
{"gene symbol": "Nostrin", "p65 translocation robust z-score": -0.9, "nuclear/cytoplasmic p65 ratio, rep 1": 1.65, "nuclear/cytoplasmic p65 ratio, rep 2": 1.35, "low cell count flag": "enough cells to score"}
{"gene symbol": "Thumpd1", "p65 translocation robust z-score": 0.03, "nuclear/cytoplasmic p65 ratio, rep 1": 1.35, "nuclear/cytoplasmic p65 ratio, rep 2": 1.21, "low cell count flag": "enough cells to score"}
